Literature values, collected in US10406239B2, “Water-soluble docetaxel anticancer drug compound and preparation method and use thereof” (NANJING YOUYI MEDICAL TECHNOLOGY CO., LTD, priority 2015, dated 2019).

Conditions: background statement; cited from earlier work

## CC(=O)O[C@@]12CO[C@@H]1C[C@H](O)[C@@]1(C)C(=O)[C@H](O)C3=C(C)[C@@H](OC(=O)[C@H](O)[C@@H](NC(=O)OC(C)(C)C)c4ccccc4)C[C@@](O)([C@@H](OC(=O)c4ccccc4)[C@H]21)C3(C)C [Docetaxel]
  solubility in water (in words): insoluble in water
